Results: article PMC10746952
These are yes or no findings as the source states them, for the method shown. Binding seen in cells or lysates may run through a third protein. Some entries that bind do so weakly or less than the wild type. Sequences can lack the tags named with a protein.

The chains behind the UniProt entries cited, without tags or fusion partners.
UniProt Q8R4B8: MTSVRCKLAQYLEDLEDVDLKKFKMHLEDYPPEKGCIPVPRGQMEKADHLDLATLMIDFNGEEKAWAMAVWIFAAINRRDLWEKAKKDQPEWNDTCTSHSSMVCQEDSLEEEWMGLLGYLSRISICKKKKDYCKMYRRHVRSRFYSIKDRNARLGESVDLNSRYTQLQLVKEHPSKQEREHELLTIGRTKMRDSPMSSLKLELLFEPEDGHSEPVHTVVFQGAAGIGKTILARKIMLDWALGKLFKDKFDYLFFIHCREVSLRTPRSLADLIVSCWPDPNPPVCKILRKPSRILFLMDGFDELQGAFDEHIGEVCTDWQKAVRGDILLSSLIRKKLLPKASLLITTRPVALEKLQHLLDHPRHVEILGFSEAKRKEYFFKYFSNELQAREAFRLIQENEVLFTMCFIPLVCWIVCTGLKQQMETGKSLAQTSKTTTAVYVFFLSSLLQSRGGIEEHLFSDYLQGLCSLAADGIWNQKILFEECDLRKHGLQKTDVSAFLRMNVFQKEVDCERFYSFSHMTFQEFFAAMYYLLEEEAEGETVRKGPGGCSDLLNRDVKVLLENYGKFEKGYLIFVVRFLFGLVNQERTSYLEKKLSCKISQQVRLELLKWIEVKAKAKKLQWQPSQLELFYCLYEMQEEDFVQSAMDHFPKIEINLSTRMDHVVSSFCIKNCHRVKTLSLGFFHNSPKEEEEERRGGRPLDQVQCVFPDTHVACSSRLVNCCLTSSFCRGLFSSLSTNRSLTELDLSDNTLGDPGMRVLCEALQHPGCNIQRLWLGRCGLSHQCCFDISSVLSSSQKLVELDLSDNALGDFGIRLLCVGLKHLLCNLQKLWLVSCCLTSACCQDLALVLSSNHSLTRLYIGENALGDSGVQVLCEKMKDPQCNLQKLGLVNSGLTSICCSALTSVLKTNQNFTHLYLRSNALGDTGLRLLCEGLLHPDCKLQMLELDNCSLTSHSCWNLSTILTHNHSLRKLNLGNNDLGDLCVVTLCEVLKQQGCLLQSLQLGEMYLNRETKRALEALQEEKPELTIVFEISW

Molecular target: T1, Flag-tagged mouse elongator complex protein 2 (ELP2) (mouse) (UniProt Q91WG4)
T1 sequence: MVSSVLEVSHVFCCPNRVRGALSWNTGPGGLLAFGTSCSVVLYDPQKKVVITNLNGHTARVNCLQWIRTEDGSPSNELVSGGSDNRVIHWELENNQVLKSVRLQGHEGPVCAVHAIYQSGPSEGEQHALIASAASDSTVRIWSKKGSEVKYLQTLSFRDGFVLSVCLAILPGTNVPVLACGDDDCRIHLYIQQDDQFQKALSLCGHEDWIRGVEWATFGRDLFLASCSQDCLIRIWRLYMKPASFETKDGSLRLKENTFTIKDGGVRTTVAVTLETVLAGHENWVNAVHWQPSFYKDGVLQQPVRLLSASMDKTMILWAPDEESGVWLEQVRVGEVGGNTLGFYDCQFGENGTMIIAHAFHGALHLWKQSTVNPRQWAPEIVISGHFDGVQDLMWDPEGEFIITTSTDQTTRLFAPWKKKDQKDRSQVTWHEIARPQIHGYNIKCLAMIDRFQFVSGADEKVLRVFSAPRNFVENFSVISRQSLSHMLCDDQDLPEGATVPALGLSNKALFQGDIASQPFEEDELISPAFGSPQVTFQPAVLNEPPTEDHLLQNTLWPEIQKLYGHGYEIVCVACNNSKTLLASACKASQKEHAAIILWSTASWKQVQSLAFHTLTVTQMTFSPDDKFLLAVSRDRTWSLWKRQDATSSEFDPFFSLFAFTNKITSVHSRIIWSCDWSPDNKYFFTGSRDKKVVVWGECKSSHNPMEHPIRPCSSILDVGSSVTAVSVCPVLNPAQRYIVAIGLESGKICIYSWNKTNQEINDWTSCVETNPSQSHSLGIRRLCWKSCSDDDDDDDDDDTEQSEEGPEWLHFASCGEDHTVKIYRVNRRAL
Test: co-IP; lysate (RIPA with protease and phosphatase inhibitors) of MC3T3-E1 cells with high ELP2 expression; IgG control or Flag antibodies with protein A/G PLUS-Agarose overnight at 4°C; five washes with TBST; blot

Substance: NOD-like receptor thermal protein domain associated protein 3 (NLRP3) (from UniProt Q8R4B8 1-1033)
- binding: binds
